# Laboratory results reported in PubChem BioAssay AID445 (National Center for Advancing Translational Sciences (NCATS), 2006).
# The other results are listed elsewhere or left out. The main result of the screen is listed elsewhere. These columns were measured beside it and carry no call. Most of these compounds were active or inconclusive in the main read-out, so they are no random draw. Potencies come from curve fits of mixed quality, noted in brackets.
# Experiment: IkB Signaling
# Details: ABC-DLBCL IkBa-CBG/CBR dual luciferase ratio (green luciferase fused to IkBa over red control in OCI-Ly3 lymphoma cells), 4 h
# Method in brief: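 Curves were fitted separately to fusion (green), unfused (red) and ratio luminescence, then classed by r2, magnitude and activity. Cells: OCI-Ly3, 4 h compound plus doxycycline at 37C; 10 uM MG-132 defined full response.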
# [1] = measured here: control luc red channel unless noted
# [2] = measured here: IkB-luc green channel
# [3] = measured here: control luc red channel
smiles,measurement,setting,value
CC1=C(C(=O)Nc2ccccc2)C(c2ccco2)C(C#N)=C(SCC(=O)OC(C)C)N1 (centres undefined),AC50,[1],"3.98 µM [falling, partial curve]"
COc1ccc(CCNC(=O)c2ccc(CSCc3ccc(C)cc3)o2)cc1OC,AC50,[1],"25.1 µM [falling, partial curve]"
COCCCNC(=O)C1CCN(C(=O)c2cc3sccc3n2Cc2ccc(Cl)cc2)CC1,AC50,[1],"39.8 µM [falling, single point]"
Cc1cccc(CSc2ccc3nnc(CCNS(=O)(=O)c4ccccc4)n3n2)c1,AC50,[1],"12.6 µM [falling, partial curve]"
COc1ccc(OC)c(-n2cnc3cc(C(=O)NC4CCCC4)ccc32)c1,AC50,[1],"3.16 µM [falling, partial curve, poor fit]"
Cc1oc(-c2ccccc2)nc1CNS(=O)(=O)c1ccc(Cl)cc1,AC50,[1],"15.8 µM [falling, partial curve]"
CCCOc1ccc(NC(=O)CC2C(=O)N(c3cccc(C)c3)C(=O)N2CCc2ccncc2)cc1 (centres undefined),AC50,[1],"31.6 µM [falling, single point]"
Cc1cccc(-c2nc(N3CCN(c4ccc(F)cc4)CC3)c3ccccc3n2)c1,AC50,[1],"20 µM [falling, single point]"
COc1ccc(Nc2nc3c(S(=O)(=O)c4ccccc4)nnn3c3ccc(Cl)cc23)cc1OC,AC50,[1],"3.16 µM [rising, full curve]"
Cc1ccc(-n2c(=O)c3c(cnn3C)n(CC(=O)Nc3cc(C)ccc3C)c2=O)cc1,AC50,[1],"6.31 µM [falling, full curve, poor fit]"
CN(C)c1ccc(C(=O)Nc2nc3c(s2)CCCC3)cc1,AC50,[2],"39.8 µM [rising, single point]"
same,AC50,[3],"5.01 µM [falling, partial curve]"
O=C(CCSCc1cnn(-c2ccccc2)c1-n1cccc1)NCc1ccc(Cl)cc1,AC50,[1],"39.8 µM [falling, single point]"
COc1ccc2[nH]c(=O)c3c(c2c1)OC(C)(C)C=C3,AC50,[2],"6.31 µM [falling, partial curve]"
same,AC50,[3],"3.98 µM [falling, partial curve]"
Cc1ccc(NC(=O)Cn2cc(C(=O)c3cccs3)c3ccccc32)cc1C,AC50,[1],"3.98 µM [falling, partial curve]"
Cc1ccc(C(=O)c2cn(Cc3cccc(F)c3)c3nc(C)ccc3c2=O)cc1,AC50,[1],"25.1 µM [falling, single point]"
COc1ccc(-c2c(NC(C)=O)n(C)c3ccccc3c2=O)cc1,AC50,[1],"15.8 µM [falling, partial curve]"
O=C(CCn1cccn1)Nc1cccc(C(F)(F)F)c1,AC50,[1],"10 µM [rising, partial curve]"
Cc1cccc(NS(=O)(=O)c2ccc(Cl)c(C(=O)Nc3ccccc3C)c2)c1,AC50,[1],"12.6 µM [falling, partial curve]"
Cc1ccc(NC(=O)c2cc(-c3ccco3)on2)cc1C,AC50,[1],"5.01 µM [falling, partial curve]"
CCCN(Cc1cccs1)C(=O)Nc1ccc(Br)c(C)c1,AC50,[1],"25.1 µM [falling, single point]"
CC(C)Cn1c(-c2ccc(S(=O)(=O)N3CCCC3)cc2)csc1=Nc1ccccc1,AC50,[1],"5.01 µM [falling, full curve]"
COc1cccc(-n2c(SCC(=O)Nc3ccc(F)cc3F)nc3c([nH]c4ccccc43)c2=O)c1,AC50,[1],"0.794 µM [rising, full curve]"
c1csc(-c2nc3ccccn3c2Nc2ccc3c(c2)OCCO3)c1,AC50,[1],"25.1 µM [falling, single point]"
COc1ccccc1CNC(=O)c1cccc(NC(=O)N2CCSc3ncccc32)c1,AC50,[1],"12.6 µM [falling, partial curve]"
CCCCOC(=O)c1ccc(NC(=O)CSc2nc3c(c(=O)[nH]2)CCC3)cc1,AC50,[1],"25.1 µM [falling, partial curve]"
COC(=O)c1c(-c2ccc(Cl)cc2)noc1N1CCN(c2cccc(OC)c2)CC1,AC50,[1],"3.16 µM [falling, partial curve]"
CCOc1ccccc1C(=O)NCC(c1ccc(N(C)C)cc1)N1CCc2ccccc21 (centres undefined),AC50,[1],"12.6 µM [falling, partial curve]"
CCOC(=O)c1cccc(Nc2nc(C(=O)OCC)nc3ccccc23)c1,AC50,[1],"39.8 µM [falling, single point]"
COc1ccc(CCNC(=O)CSc2nnc(CNc3ccc(Cl)cc3)o2)cc1OC,AC50,[1],"39.8 µM [falling, single point]"
Cc1ccc(-n2ncc3c(NCCCn4ccnc4)ncnc32)cc1,AC50,[1],"1.58 µM [falling, partial curve]"
Cc1ccc(NC(=O)c2cc(-c3cccs3)on2)cc1C,AC50,[1],"10 µM [falling, partial curve]"
CCN1CCN(CCCNC(=O)c2cnn(-c3ccc(C)cc3)c2C2CCN(C(=O)OC(C)(C)C)CC2)CC1,AC50,[1],"39.8 µM [falling, partial curve, poor fit]"
Cc1cc(C)cc(NC(=O)c2ccc3c(O)c(S(=O)(=O)c4ccccc4)c(=O)[nH]c3c2)c1,AC50,[1],"10 µM [falling, partial curve]"
COc1cc(Cl)c(C)cc1NC(=O)c1ccc(CN2C(=O)CCn3nc(C)cc32)cc1,AC50,[1],"10 µM [falling, partial curve]"
Cc1c(Cl)cccc1NC(=O)CSc1ncc(S(=O)(=O)c2ccc(C(C)C)cc2)c(=O)[nH]1,AC50,[1],"15.8 µM [falling, partial curve]"
c1ccc(-c2cc(CSc3nc4ccccc4[nH]3)on2)cc1,AC50,[1],"7.94 µM [falling, partial curve]"
CCCCOC(=O)c1ccc(NC(=O)Cc2coc3c(C)c(C)ccc23)cc1,AC50,[1],"0.631 µM [falling, full curve]"
Cc1cc(C)c2c(N)c(S(=O)(=O)c3ccccc3)sc2n1,AC50,[1],"7.94 µM [falling, partial curve]"
COC(=O)c1ccccc1NC(=O)C1(c2cccs2)CCOCC1,AC50,[1],"3.16 µM [rising, full curve]"
Cc1cccc(CNC(=O)CN2C(=O)C3CCCCN3c3ccc(C(=O)N4CCCC4)cc32)c1 (centres undefined),AC50,[1],"6.31 µM [falling, full curve]"
Cc1ccc(-c2nnc(Nc3ccc(Cl)c(Cl)c3)c3ccccc23)cc1S(=O)(=O)N(C)C,AC50,[1],"0.631 µM [falling, full curve]"
COc1ccc(CCNS(=O)(=O)c2ccc(F)c(C(=O)Nc3ccc(Cl)cc3)c2)cc1OC,AC50,[1],"25.1 µM [falling, partial curve]"
Cc1ccc(C(=O)N2CCN(c3ccc(F)cc3)CC2)cc1NC(=O)c1nsc2ccccc12,AC50,[1],"31.6 µM [falling, partial curve]"
CCn1c(C(=O)NCc2ccc(OC)cc2)cc2sc(Cl)cc21,AC50,[1],"31.6 µM [falling, partial curve]"
O=C(CCCn1c(=S)[nH]c2cc3c(cc2c1=O)OCO3)N1CCN(c2ccc(F)cc2)CC1,AC50,[1],"7.94 µM [falling, partial curve]"
CCn1cc(C(=O)N2CCN(c3ccccc3)CC2)c(=O)c2cc(S(=O)(=O)N3CCCC3)ccc21,AC50,[1],"10 µM [falling, partial curve]"
O=C(CSc1nnc(-c2ccccc2)o1)c1nnc(-c2ccccc2)o1,AC50,[1],"15.8 µM [falling, partial curve]"
CCOc1ccccc1Nc1nc(-c2ccc(C)cc2)c(CC(=O)O)s1,AC50,[1],"15.8 µM [falling, partial curve]"
COc1cccc(CNC(=O)CN2C(=O)N(c3c(C)cccc3C)S(=O)(=O)c3ccccc32)c1OC,AC50,[1],"31.6 µM [falling, single point]"
COc1ccc(OC)c(NC(=O)C(C)n2nc(C)c3c(C)n(-c4ccccc4)nc3c2=O)c1 (centres undefined),AC50,[1],"25.1 µM [falling, single point]"
COc1ccc2c(c1)CCc1c(C(=O)Nc3c(C)nn(Cc4ccc(Cl)cc4)c3C)noc1-2,AC50,[1],"6.31 µM [falling, full curve]"
CC(=O)c1cccc(NC(=O)Cn2c(=O)oc3cc(S(=O)(=O)NC4CCCC4)ccc32)c1,AC50,[1],"39.8 µM [falling, single point]"
CC(=O)c1ccc(Nc2nc3ccccc3nc2-n2nc(C)cc2C)cc1,AC50,[1],"3.16 µM [falling, full curve]"
CC(=O)N1CCN(c2nc3c(C)ccc(Cl)c3s2)CC1,AC50,[1],"2 µM [rising, partial curve]"
COc1cccc(NC(=O)CSc2nccn2Cc2ccc3c(c2)OCO3)c1,AC50,[1],"31.6 µM [falling, single point]"
CC1=C(C(=O)OCc2ccc3c(c2)OCO3)C(c2ccccc2)NC(=O)N1 (centres undefined),AC50,[1],"12.6 µM [falling, partial curve]"
C=CCc1ccccc1OCCn1c(C2CC(=O)N(Cc3ccc(F)cc3)C2)nc2ccccc21 (centres undefined),AC50,[1],"31.6 µM [falling, single point]"
Cc1ccc2nc(-c3cccc(Cl)c3)c(Nc3ccc4c(c3)OCO4)n2c1,AC50,[1],"0.631 µM [falling, full curve]"
Cc1ccc(C)c(NC(=O)N2CCc3cc(S(=O)(=O)N4CCC(C)CC4)ccc32)c1,AC50,[1],"15.8 µM [falling, partial curve]"
COc1ccccc1CCNC(=O)C(=O)NCC(c1cccs1)S(=O)(=O)c1ccc(F)cc1 (centres undefined),AC50,[1],"31.6 µM [falling, single point]"
CCc1ccc(S(=O)(=O)c2nnn3c2nc(NCc2cccc(OC)c2)c2cc(Cl)ccc23)cc1,AC50,[1],"15.8 µM [falling, partial curve]"
O=C(Nc1cccc(-c2nc3ccccc3[nH]2)c1)c1ccccc1F,AC50,[1],"15.8 µM [falling, partial curve]"

# Laid out differently: results already given
smiles | measurement | setting | value
CCOc1ccccc1C(=O)NCC(c1ccc(N(C)C)cc1)N1CCc2ccccc21 (centres undefined) | AC50 | [1] | 12.6 µM [falling, partial curve]
CCOC(=O)c1cccc(Nc2nc(C(=O)OCC)nc3ccccc23)c1 | AC50 | [1] | 39.8 µM [falling, single point]
